Data source: PubChem BioAssay AID493246 (Drosophila RNAi Screening Center, 2011)
The deposit covers about 21,000 reagents; below is a random part of those with a known target gene and a result. Of all reagents, 429 (2%) are marked active. 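Values are raw and not normalised between plates; calls rest on per-plate z-scores that were not deposited.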 A number with no mark means an inactive call. Reagent sequences are not shown. The record does not give: the amount of reagent, the time to read-out.

- Test: 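Genes fly cells need to grow and stay alive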 (primary screen)
- Cells: Drosophila Kc and S2R+ cells
- Reagents: long dsRNA against Drosophila genes
- Detection: 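Cell number per well after knock-down, printed as raw plate values; calls were based on per-plate z-scores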
- Reading the numbers: Kc cell number and S2R+ cell number: higher = more cells remaining
- Active means: 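Active when the per-plate z-score of cell number is 3 or more in the direction of fewer cells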

CG11986 [DRSC14461] → Kc cell number, rep 1 = 1.43e6; Kc cell number, rep 2 = 1.50e6; S2R+ cell number, rep 1 = 1.20e6; S2R+ cell number, rep 2 = 1.25e6
qkr58E-3 [DRSC04711] → Kc cell number, rep 1 = 1.39e6; Kc cell number, rep 2 = 1.49e6; S2R+ cell number, rep 1 = 1.03e6; S2R+ cell number, rep 2 = 1.10e6
CG8910 [DRSC07414] → Kc cell number, rep 1 = 1.53e6; Kc cell number, rep 2 = 1.61e6; S2R+ cell number, rep 1 = 1.10e6; S2R+ cell number, rep 2 = 1.21e6
run [DRSC20584] → Kc cell number, rep 1 = 1.70e6; Kc cell number, rep 2 = 1.72e6; S2R+ cell number, rep 1 = 1.08e6; S2R+ cell number, rep 2 = 1.16e6

No new results follow: an excerpt of the list.
CG8910 [DRSC07414] → Kc cell number, rep 1 = 1.53e6; Kc cell number, rep 2 = 1.61e6; S2R+ cell number, rep 1 = 1.10e6; S2R+ cell number, rep 2 = 1.21e6
run [DRSC20584] → Kc cell number, rep 1 = 1.70e6; Kc cell number, rep 2 = 1.72e6; S2R+ cell number, rep 1 = 1.08e6; S2R+ cell number, rep 2 = 1.16e6

More reagents:
lectin-37Db [DRSC03279] → Kc cell number, rep 1 = 1.48e6; Kc cell number, rep 2 = 1.56e6; S2R+ cell number, rep 1 = 1.25e6; S2R+ cell number, rep 2 = 4.66e5
nAChRalpha7 [DRSC20078] → Kc cell number, rep 1 = 1.50e6; Kc cell number, rep 2 = 1.52e6; S2R+ cell number, rep 1 = 1.04e6; S2R+ cell number, rep 2 = 1.21e6
nAChRalpha7 [DRSC20081] → Kc cell number, rep 1 = 1.50e6; Kc cell number, rep 2 = 1.54e6; S2R+ cell number, rep 1 = 1.11e6; S2R+ cell number, rep 2 = 1.14e6
CG13250 [DRSC11698] → Kc cell number, rep 1 = 1.30e6; Kc cell number, rep 2 = 1.54e6; S2R+ cell number, rep 1 = 1.27e6; S2R+ cell number, rep 2 = 1.29e6
CG15912 [DRSC18105] → Kc cell number, rep 1 = 1.43e6; Kc cell number, rep 2 = 1.43e6; S2R+ cell number, rep 1 = 1.03e6; S2R+ cell number, rep 2 = 1.14e6
mesh [DRSC15098] → Kc cell number, rep 1 = 1.54e6; Kc cell number, rep 2 = 1.58e6; S2R+ cell number, rep 1 = 1.07e6; S2R+ cell number, rep 2 = 1.24e6
mesh [DRSC15099] → Kc cell number, rep 1 = 1.53e6; Kc cell number, rep 2 = 1.53e6; S2R+ cell number, rep 1 = 1.13e6; S2R+ cell number, rep 2 = 1.21e6
CG10479 [DRSC09733] → Kc cell number, rep 1 = 1.30e6; Kc cell number, rep 2 = 1.40e6; S2R+ cell number, rep 1 = 1.12e6; S2R+ cell number, rep 2 = 1.08e6
